# Reference: the supplement of paper PMC5355238
# Counter-ions that a name gives are not always drawn. Some of the results follow. Repeats are few or missing, and single values can be far off.
# System: Reh
# Assay: S-phase gammaH2AX median, Z-score vs plate median (drug alone); higher = more S-phase DNA damage
# Conditions: MK1775 concentration 0 nM; 10 µM; 4 h
row,Compound,S-phase gammaH2AX median (Z-score)
1,Oc1cccc(-c2nc(N3CCOCC3)c3oc4ncccc4c3n2)c1,-0.192
2,CCN(CC)CCCCNc1ncc2cc(-c3cc(OC)cc(OC)c3)c(NC(=O)NC(C)(C)C)nc2n1,0.0236
3,"CN(C)CCC(c1ccc(Br)cc1)c1ccccn1 (single isomer, unassigned; (+)) [(+)-Brompheniramine maleate]",-0.068
4,CC(C)C[C@H](NC(=O)CNC(=O)c1cc(Cl)ccc1Cl)B1OC(=O)C(CC(=O)O)(CC(=O)O)O1,-0.139
5,"CC(N)(Cc1ccc(O)c(O)c1)C(=O)O (racemic) [(?)-3-(3,4-dihydroxyphenyl)-2-methyl-DL-alanine]",0.18
6,CCCCNc1c(C(=O)OCC)c(C)nc2c1cnn2CC [Tracazolate],-0.0868
7,CC(C)c1ccc(Cn2ccc3c4c(N)nc(NC5CC5)nc4ccc32)cc1,-0.0777
8,COc1cc(-c2ccc(=O)[nH]n2)ccc1OC(F)F [Zardaverine],-0.714
9,Cc1ccc([N+](=O)[O-])cc1S(=O)(=O)N(C)/N=C/c1cnc2ccc(Br)cn12,0.0182
10,O=C(Nc1cc(C(=O)Nc2ccc(S(=O)(=O)O)cc2S(=O)(=O)O)cc(C(=O)Nc2ccc(S(=O)(=O)O)cc2S(=O)(=O)O)c1)Nc1cc(C(=O)Nc2ccc(S(=O)(=O)O)cc2S(=O)(=O)O)cc(C(=O)Nc2ccc(S(=O)(=O)O)cc2S(=O)(=O)O)c1 [NF449 octasodium salt],-0.0568
11,CCCCCCCc1ccc(CCc2cccc(O)c2C(=O)O)cc1,0.0878
12,CC(N)=NCCC[C@H](N)C(=O)O [L-N5-(1-Iminoethyl)ornithine hydrochloride],0.205
13,CC[N+](CC)(CC)CC(=O)Nc1c(C)cccc1C [Lidocaine N-ethyl bromide quaternary salt],-0.0355
14,NCCNS(=O)(=O)c1cccc2cnccc12 [H-9 dihydrochloride],-0.109
15,NC(N)=Nc1nc(CSCC/C(N)=N/S(N)(=O)=O)cs1 [Famotidine],-0.0283
16,Nc1nc(OCc2ccccc2)c2nc[nH]c2n1 [O6-benzylguanine],0.068
17,CC1=C(/C=C/C(C)=C/C=C/C(C)=C\C(=O)O)C(C)(C)CCC1 [13-cis-retinoic acid],0.0142
18,CSc1ccc2c(c1)N(CCC1CCCCN1C)c1ccccc1S2 (centres undefined) [Thioridazine hydrochloride],-1.15
19,NC1C=CC=C(C(=O)O)C1 (centres undefined) [Gabaculine hydrochloride],0.0291
20,CC(C)(Sc1ccc(CCN(CCCCC2CCCCC2)C(=O)NC2CCCCC2)cc1)C(=O)O,0.0535
21,OC(CN1CCN(c2cccc(Cl)c2)CC1)C(c1ccccc1)c1ccccc1 (centres undefined),0.0175
22,COc1ccc(-c2ccc3c(N4CCOCC4)nc(N4C[C@@H](C)O[C@@H](C)C4)nc3n2)cc1CO,-0.146
23,Nc1ccc(CCNc2ncnc3c2ncn3C2OC(CO)C(O)C2O)cc1 (centres undefined) [N6-2-(4-Aminophenyl)ethyladenosine],-0.0757
24,OCC1OC(n2cnc3c(NCCc4ccccc4)ncnc32)C(O)C1O (centres undefined) [N6-2-Phenylethyladenosine],-0.052
25,OC[C@H]1O[C@@H](n2cnc3c(Nc4ccccc4)ncnc32)[C@H](O)[C@@H]1O [N6-Phenyladenosine],-0.102

# Shown bar-delimited: entries from further up
row | Compound | S-phase gammaH2AX median (Z-score)
21 | OC(CN1CCN(c2cccc(Cl)c2)CC1)C(c1ccccc1)c1ccccc1 (centres undefined) | 0.0175
22 | COc1ccc(-c2ccc3c(N4CCOCC4)nc(N4C[C@@H](C)O[C@@H](C)C4)nc3n2)cc1CO | -0.146

# Later entries.

row,Compound,S-phase gammaH2AX median (Z-score)
1,CCN1CCc2nc(N)oc2CC1 [B-HT 933 dihydrochloride],0.107
2,C[N+](C)(C)CCOC(=O)CCC(=O)OCC[N+](C)(C)C [Succinylcholine chloride],-0.0133
3,CC(Cc1ccc(O)c(O)c1)(NN)C(=O)O (stereo not drawn) [S-(-)-Carbidopa],-0.00388
4,CN(C)c1ccc(O)c2c1C[C@H]1C[C@H]3[C@H](N(C)C)C(O)=C(C(N)=O)C(=O)[C@@]3(O)C(O)=C1C2=O [Minocycline hydrochloride],-0.116
5,CN(Cc1cnc2nc(N)nc(N)c2n1)c1ccc(C(=O)N[C@@H](CCC(=O)O)C(=O)O)cc1 [Methotrexate],1.33
6,CN(Cc1cnc2nc(N)nc(N)c2n1)c1ccc(C(=O)N[C@@H](CCC(=O)O)C(=O)O)cc1 [(-)Amethopterin],0.0291
7,CN(Cc1cnc2nc(N)nc(N)c2n1)c1ccc(C(=O)N[C@@H](CCC(=O)O)C(=O)O)cc1 [Abitrexate (Methotrexate)],-0.00271
8,COc1cc2c(CCNC(C)=O)c[nH]c2cc1Cl [6-Chloromelatonin],0.0563
9,Cc1ccc(S(=O)(=O)NC(=O)NN2CCCCCC2)cc1 [Tolazamide],-0.1
10,"C=CCn1c(=O)c2c(nc(-c3ccc(S(=O)(=O)O)cc3)n2C)n(C)c1=O [1-Allyl-3,7-dimethyl-8-p-sulfophenylxanthine]",0.0816
11,Nc1ccn([C@@H]2O[C@H](CO)[C@@H](O)[C@@H]2O)c(=O)n1 [Cytarabine],5.29
12,Nc1ccn([C@@H]2O[C@H](CO)[C@@H](O)[C@@H]2O)c(=O)n1 [Cytosine-1-beta-D-arabinofuranoside hydrochloride],6.82
13,Nc1ncnc2c1ncn2C1CCCO1 (centres undefined),-0.407
14,Cc1[nH]c2ccccc2c1CCNCc1ccc(/C=C/C(=O)NO)cc1 [Panobinostat],2.8
15,N[C@@H](Cc1ccc(O)c(I)c1)C(=O)O [3-Iodo-L-tyrosine],0.12
16,CC(C)Cn1c(=O)n(C)c(=O)c2[nH]cnc21 [3-Isobutyl-1-methylxanthine],0.198
17,CCCCOc1cc(CC2CNC(=O)N2)ccc1OC (centres undefined),-0.0563
18,Nc1ccc(C(=O)Nc2cccc(-c3nc(N4CCOCC4)c4oc5ncccc5c4n3)c2)cn1,-0.0986
19,CN(C)CCCN1c2ccccc2Sc2ccc(Cl)cc21 [Chlorpromazine hydrochloride],0.0563
20,Cc1nc(-c2ccc(OCC(C)C)c(C#N)c2)sc1C(=O)O [Febuxostat (Uloric)],0.0352
21,CC(C)c1ccc2c(c1)c(SC(C)(C)C)c(CC(C)(C)C(=O)O)n2Cc1ccc(Cl)cc1,0.00473
22,Cc1nc(Nc2ncc(C(=O)Nc3c(C)cccc3Cl)s2)cc(N2CCN(CCO)CC2)n1,0.482
23,CCN1CCN(Cc2ccc(-c3cc4c(N[C@H](C)c5ccccc5)ncnc4[nH]3)cc2)CC1,-0.00425
24,CC(C)(C)c1ccc(C(O)CCCN2CCC(C(O)(c3ccccc3)c3ccccc3)CC2)cc1 (centres undefined) [Terfenadine],-0.834
